Consider one molecule from publication doi:10.1101/709196 (bioRxiv, 2019).

The target in the assay is SS-EGFP-SUN2^595-731 (UniProt Q8BJS4). Kind of assay: dual-color fluorescence fluctuation spectroscopy.

These are yes or no findings as the source states them, for the method shown. Where a sequence is shown, tags or fusion partners need not be part of it.

B1: SS-EGFP-SUN2^595-731 (domain or fragment, UniProt Q8BJS4 595-731)
chain: LWYHSQSPRVILQPDVHPGNCWAFQGPQGFAVVRLSARIRPTAVTLEHVPKALSPNSTISSAPKDFAIFGFDEDLQQEGTLLGTFAYDQDGEPIQTFYFQASKMATYQVVELRILTNWGHPEYTCIYRFRVHGEPAH
B1: the binding entry was “no binding”.
